From article PMC8994751
No constants are given. Whether binding was seen depends on the method and setting. Binding seen in cells or lysates may run through a third protein. Binding calls can cover weak binding; strength is not graded here. Tags and fused reporters may be left off the sequences shown.

Target: T1, Flag-USP26 full length (UniProt Q9BXU7)
T1 sequence: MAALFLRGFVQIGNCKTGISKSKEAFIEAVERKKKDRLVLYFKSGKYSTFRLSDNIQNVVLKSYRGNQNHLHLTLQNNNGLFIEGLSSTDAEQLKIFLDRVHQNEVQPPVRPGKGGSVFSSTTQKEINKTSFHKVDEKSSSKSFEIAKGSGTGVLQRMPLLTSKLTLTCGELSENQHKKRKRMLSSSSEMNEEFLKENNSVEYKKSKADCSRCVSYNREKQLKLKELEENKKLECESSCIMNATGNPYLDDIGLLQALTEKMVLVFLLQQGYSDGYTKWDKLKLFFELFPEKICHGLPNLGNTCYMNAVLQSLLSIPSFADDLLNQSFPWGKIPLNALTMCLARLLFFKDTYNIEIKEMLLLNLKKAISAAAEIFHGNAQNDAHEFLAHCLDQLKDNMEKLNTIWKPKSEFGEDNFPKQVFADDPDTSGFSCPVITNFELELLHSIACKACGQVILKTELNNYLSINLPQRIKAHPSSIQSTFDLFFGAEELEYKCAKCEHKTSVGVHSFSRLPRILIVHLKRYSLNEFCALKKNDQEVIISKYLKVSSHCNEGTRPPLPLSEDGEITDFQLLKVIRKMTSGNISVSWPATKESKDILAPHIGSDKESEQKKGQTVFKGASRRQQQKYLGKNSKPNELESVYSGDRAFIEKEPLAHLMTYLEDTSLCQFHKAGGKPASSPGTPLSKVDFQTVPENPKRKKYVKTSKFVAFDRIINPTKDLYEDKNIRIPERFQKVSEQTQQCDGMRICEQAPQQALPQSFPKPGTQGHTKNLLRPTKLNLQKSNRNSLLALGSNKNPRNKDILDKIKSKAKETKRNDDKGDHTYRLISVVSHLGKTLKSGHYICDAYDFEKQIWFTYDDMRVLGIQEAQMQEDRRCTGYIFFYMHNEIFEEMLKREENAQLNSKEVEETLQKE
Test: co-IP; HEK293 cells transfected with Flag-USP26 and Myc-TAZ full length or mutants; NP-40 lysis buffer; IP with Flag antibody, blot with Myc antibody

“Myc-TAZ C-terminal region (deletion mutant) (domain or fragment)” was tested, and the binding was “binds”.
